Values from PubChem BioAssay AID652259 (Drosophila RNAi Screening Center, 2013)

Aim: 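Knock-downs that push a Wingless-driven reporter up or down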 (primary screen)
System: Drosophila clone 8 imaginal disc epithelial cells
Reagents: long dsRNA against Drosophila genes
Challenge: pathway stimulated by co-transfected Wingless expression plasmid
Measurement: 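Firefly luciferase from a tcf-site Wingless reporter, measured alongside co-transfected Renilla luciferase that tracks transfection; pathway stimulated by a Wingless plasmid; the firefly-to-Renilla ratio is not deposited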
Direction: firefly reporter light: higher = more Wg reporter light, before normalisation; Renilla control light: higher = more transfected or surviving cells
Call rule: 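Strong candidates differ from their plate mean by at least two out of four per-plate statistical tests; weak candidates meet just one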
Calls: active = candidate regulator (raises or lowers reporter); inactive = not a candidate
The screen tested about 22,000 reagents; shown is a random part of those that have a named target and a result. In the full data, 233 (1.1%) were called active. 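Light values are raw, unnormalised plate reads; the ratio scores behind the reporter calls were not deposited.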 A plus sign joins genes that one reagent is predicted to hit. Not stated in the record: the amount of reagent, the time to read-out, the dose of the treatment.

Knock-down of CaMKI (Calcium/calmodulin-dependent protein kinase I) [DRSC17162] resulted in: firefly reporter light, replicate 1 = 2178; firefly reporter light, replicate 2 = 7990; Renilla control light, replicate 1 = 919; Renilla control light, replicate 2 = 2976; inactive.
With knock-down of CG3769 [DRSC02723] the results were firefly reporter light, replicate 1 = 3899; firefly reporter light, replicate 2 = 7857; Renilla control light, replicate 1 = 790; Renilla control light, replicate 2 = 3016; inactive.
For Saf-B (Scaffold attachment factor B) [DRSC16167], the values are firefly reporter light, replicate 1 = 2594; firefly reporter light, replicate 2 = 5541; Renilla control light, replicate 1 = 893; Renilla control light, replicate 2 = 1462; inactive.
Against CG33454 [DRSC22914], the values are firefly reporter light, replicate 1 = 6.90e5; firefly reporter light, replicate 2 = 6.97e5; Renilla control light, replicate 1 = 2.76e5; Renilla control light, replicate 2 = 2.16e5; inactive.
For PIP82 [DRSC18694] the deposit lists firefly reporter light, replicate 1 = 14650; Renilla control light, replicate 1 = 10586; inactive.
For Spn27A (Serpin 27A) [DRSC03608], the entry reads firefly reporter light, replicate 1 = 1940; firefly reporter light, replicate 2 = 7410; Renilla control light, replicate 1 = 852; Renilla control light, replicate 2 = 2518; inactive.
Against CG11247 [DRSC11643] the deposit lists firefly reporter light, replicate 1 = 7297; Renilla control light, replicate 1 = 3832; inactive.
CG11247 [DRSC21901] scored firefly reporter light, replicate 1 = 3.63e5; firefly reporter light, replicate 2 = 4.51e5; Renilla control light, replicate 1 = 1.57e5; Renilla control light, replicate 2 = 1.79e5; inactive.
Silencing of CG17776 [DRSC18136] gave: firefly reporter light, replicate 1 = 22093; Renilla control light, replicate 1 = 15350; inactive.
After knock-down of CG14610 + asRNA:CR42738 [DRSC12554] the results were firefly reporter light, replicate 1 = 15100; Renilla control light, replicate 1 = 2765; inactive.
After knock-down of hyd (hyperplastic discs) [DRSC16971] the results were firefly reporter light, replicate 1 = 11476; Renilla control light, replicate 1 = 2992; inactive.
Silencing of ND-B12 (NADH dehydrogenase (ubiquinone) B12 subunit) [DRSC04060] gave: firefly reporter light, replicate 1 = 2044; firefly reporter light, replicate 2 = 5200; Renilla control light, replicate 1 = 626; Renilla control light, replicate 2 = 1840; inactive.

Sorted by “firefly reporter light, replicate 1” (lowest first): some entries from above.
CG14610 + asRNA:CR42738 [DRSC12554] → firefly reporter light, replicate 1: 15100; Renilla control light, replicate 1: 2765; outcome: inactive
CG17776 [DRSC18136] → firefly reporter light, replicate 1: 22093; Renilla control light, replicate 1: 15350; outcome: inactive
